PubChem BioAssay AID686943, Drosophila RNAi Screening Center – 2013
The screen tested about 23,000 reagents; this is an unselected part of those with a known target gene and a result. 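Extra replicates exist only for a retested subset of genes; insulin dose and duration not given; both raised and lowered dpERK matter.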 A plus sign joins genes that one reagent is predicted to hit. Further read-outs or replicates are left out here. Not stated in the record: the amount of reagent, the time to read-out.

Aim: 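Fly genes whose loss alters ERK activation after insulin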 (primary screen)
Cells: Drosophila S2R+ haemocyte-like cells expressing YFP-tagged ERK (Rolled)
Knock-down reagent: long dsRNA against Drosophila genes
Conditions: insulin stimulation versus unstimulated cells; dose and duration not given
Measured: 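Antibody staining for doubly phosphorylated ERK divided by ERK-YFP signal, as plate z-scores, in insulin-treated and untreated cells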
Reading the numbers: replicate 1, z-score of dpERK with insulin and replicate 2, z-score of dpERK with insulin: higher = more active ERK per ERK-YFP after insulin

| target gene | dsRNA | replicate 1, z-score of dpERK with insulin | replicate 2, z-score of dpERK with insulin |
| --- | --- | --- | --- |
| Cyp303a1 (Cytochrome P450 303a1) | DRSC03300 | 0.06 | -0.26 |
| Osi19 (Osiris 19) | DRSC12569 | 0.26 | -0.34 |
| Ku80 | DRSC02699 | 0.7 | 0.31 |
| sa (spermatocyte arrest) | DRSC11649 | -0.94 | 0.06 |
| CG8509 | DRSC20109 | 0.83 | -0.25 |
| CG10802 | DRSC17762 | 0.17 | -0.03 |
| CG9777 | DRSC20208 | 0.1 | 0.47 |
| l(2)34Fc (lethal (2) 34Fc) | DRSC01910 | 0.79 | 0.16 |
| Peritrophin-A (Peritrophin A) | DRSC20570 | 0.32 | 0.13 |
| MRP (Multidrug-Resistance like Protein 1) | DRSC02942 | 0.73 | 0.91 |
| Tsp42Ei (Tetraspanin 42Ei) | DRSC06189 | 0.22 | -0.68 |
| CG6398 | DRSC19992 | 0.24 | 0.13 |
| CR12842 (pseudo) | DRSC06188 | -0.44 | -0.91 |
| alph (alphabet) | DRSC15398 | 1.47 | 0.37 |
| CG33062 | DRSC22195 | -0.1 | -0.25 |
| RpS12 (Ribosomal protein S12) | DRSC11270 | -3.99 | -0.42 |
| CG4991 | DRSC19928 | 0.17 | 0.7 |
| CG9961 | DRSC00738 | 0.06 | -0.04 |
| erm (earmuff) | DRSC00700 | 0.42 | -0.36 |
| CG10405 | DRSC14238 | 0.4 | 0.41 |
| Mst84Db (Male-specific RNA 84Db) | DRSC12542 | 0.12 | 0.41 |
| Mst84Db (Male-specific RNA 84Db) | DRSC12598 | -1.16 | -0.48 |
| c12.2 | DRSC18751 | 0.4 | 0.3 |
| CG14722 | DRSC14944 | -0.14 | -0.38 |
| CG12236 | DRSC17830 | -5.89 | -4.69 |
| CG12236 | DRSC17831 | -0.36 | 0 |
| CG43897 | DRSC10173 | -1.56 | -1.19 |
| CG43897 | DRSC10965 | -2.11 | 0.83 |
| CG43897 | DRSC10967 | 1.25 | 0.09 |
| CG43897 | DRSC21583 | -1.79 | -2.22 |
| qvr (quiver) | DRSC05280 | 0.74 | 0.6 |
| CG43133 | DRSC19231 | 0.16 | 0.37 |
| spel1 (spellchecker1) | DRSC03617 | -0.52 | -0.2 |
| iotaTry (iotaTrypsin) | DRSC07634 | -0.21 | -0.51 |
| CG14106 | DRSC10109 | -0.17 | 0.05 |
| CG13284 | DRSC02256 | -0.01 | -0.16 |
| CG31097 | DRSC14666 | 1.34 | 0.04 |
| CG17140 + CG17139 | DRSC02585 | 0.27 | -0.42 |
| CG17140 + CG17139 | DRSC02586 | 0.04 | -0.38 |
